Reference: PubChem BioAssay AID1259308 (NCATS, 2017)
Aim: 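Genes whose loss raises luciferase production in HEK293 cells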 (primary screen). System: human HEK293 embryonic kidney cells stably expressing firefly luciferase (HEK-CMV-Luc2-Hygro). Reagents: single siRNA against human genes, 0.8 pmol siRNA per well. Time to read-out: 72 h. Detection: 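Luciferase light (ONE-Glo) measured on one replicate plate set and viability (CellTiter-Glo) on the other, scaled to a negative control siRNA, with robust z-scores and luciferase per cell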. Scale: total luciferase, z-score: higher = more reporter protein produced. Call rule: 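Active when the median/MAD z-score for overall luciferase is greater than 3; a gene was taken forward for validation with new siRNAs if at least two of its three siRNAs passed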. Meaning of the calls: active = raised luciferase; inactive = no rise.
Here is one part, drawn at random, of about 59,000 deposited reagents. Over the whole deposit, about 1,510 (2.6%) got an active call. 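Calls use total luciferase alone and ignore viability, so some active siRNAs may act by altering cell number.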 Further read-outs or replicates are left out here.

Depletion of CNGA1 [SID160745231] came out at: total luciferase, z-score -0.309; inactive.
With knock-down of CNGA1 [SID160745241] the results were total luciferase, z-score 0.813; inactive.
Against CNGA1 [SID160745252], the values are total luciferase, z-score 0.415; inactive.
SETSIP [SID160770025] showed total luciferase, z-score -0.0123; inactive.
Against SETSIP [SID160770026], the entry reads total luciferase, z-score 0.479; inactive.
Knock-down of SETSIP [SID160770027] came out at: total luciferase, z-score 0.879; inactive.

Laid out differently: results already given
{"gene":"CNGA1","PubChem SID":"SID160745252","total luciferase, z-score":0.415,"outcome":"inactive"}
{"gene":"SETSIP","PubChem SID":"SID160770025","total luciferase, z-score":-0.0123,"outcome":"inactive"}

More reagents:
Knock-down of ZWINT [SID160730009] came out at: total luciferase, z-score 3.51; active.
Knock-down of ZWINT [SID160730011] came out at: total luciferase, z-score -0.258; inactive.
For ZWINT [SID160730012] the deposit lists total luciferase, z-score 0.915; inactive.
EFCAB7 [SID160752284] scored total luciferase, z-score 0.0312; inactive.
Depletion of EFCAB7 [SID160752285] resulted in: total luciferase, z-score -0.457; inactive.
With knock-down of EFCAB7 [SID160752286] the results were total luciferase, z-score 0.227; inactive.
